# In article doi:10.1101/495762 (bioRxiv, 2018):
# These are yes or no findings as the source states them, for the method shown. In cells and extracts the contact can be indirect. Some binding calls cover weakened binding; strength is not graded here. Where a sequence is shown, tags or fusion partners need not be part of it.
# T1: Smc3(K198C)-PK6 (S. cerevisiae) (UniProt P47037)
# T1 sequence: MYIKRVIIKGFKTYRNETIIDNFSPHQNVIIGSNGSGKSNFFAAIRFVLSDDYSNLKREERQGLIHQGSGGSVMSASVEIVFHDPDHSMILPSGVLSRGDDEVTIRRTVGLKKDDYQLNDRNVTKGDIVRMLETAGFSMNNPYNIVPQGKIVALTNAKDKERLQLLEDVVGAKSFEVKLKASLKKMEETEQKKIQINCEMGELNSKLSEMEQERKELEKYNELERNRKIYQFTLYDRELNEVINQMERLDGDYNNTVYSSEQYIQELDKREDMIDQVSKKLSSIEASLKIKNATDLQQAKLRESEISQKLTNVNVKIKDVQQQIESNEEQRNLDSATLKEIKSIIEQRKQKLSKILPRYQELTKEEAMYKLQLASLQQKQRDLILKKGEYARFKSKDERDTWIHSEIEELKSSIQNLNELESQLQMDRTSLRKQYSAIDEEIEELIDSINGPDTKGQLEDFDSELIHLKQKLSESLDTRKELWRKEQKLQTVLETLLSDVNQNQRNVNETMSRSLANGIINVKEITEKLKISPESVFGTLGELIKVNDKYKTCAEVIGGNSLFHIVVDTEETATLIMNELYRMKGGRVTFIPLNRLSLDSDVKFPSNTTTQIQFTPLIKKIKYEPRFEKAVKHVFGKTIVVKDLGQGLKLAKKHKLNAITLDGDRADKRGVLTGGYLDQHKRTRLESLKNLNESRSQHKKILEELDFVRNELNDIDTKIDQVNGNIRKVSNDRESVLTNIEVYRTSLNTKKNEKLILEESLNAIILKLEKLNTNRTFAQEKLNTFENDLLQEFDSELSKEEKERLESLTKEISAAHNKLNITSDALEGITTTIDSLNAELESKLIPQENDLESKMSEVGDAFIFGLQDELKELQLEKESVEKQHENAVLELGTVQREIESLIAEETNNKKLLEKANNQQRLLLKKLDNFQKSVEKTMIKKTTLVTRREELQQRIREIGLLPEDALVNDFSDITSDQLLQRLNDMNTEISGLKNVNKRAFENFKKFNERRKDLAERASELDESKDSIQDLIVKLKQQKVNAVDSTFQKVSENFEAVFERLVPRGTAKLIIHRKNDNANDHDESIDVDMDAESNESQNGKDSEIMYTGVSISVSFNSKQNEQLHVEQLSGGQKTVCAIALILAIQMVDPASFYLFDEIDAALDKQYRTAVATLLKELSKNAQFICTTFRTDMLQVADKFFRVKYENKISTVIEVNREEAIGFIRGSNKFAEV
# T2: Smc3(R1222C) (S. cerevisiae) (UniProt P47037)
# T2 sequence: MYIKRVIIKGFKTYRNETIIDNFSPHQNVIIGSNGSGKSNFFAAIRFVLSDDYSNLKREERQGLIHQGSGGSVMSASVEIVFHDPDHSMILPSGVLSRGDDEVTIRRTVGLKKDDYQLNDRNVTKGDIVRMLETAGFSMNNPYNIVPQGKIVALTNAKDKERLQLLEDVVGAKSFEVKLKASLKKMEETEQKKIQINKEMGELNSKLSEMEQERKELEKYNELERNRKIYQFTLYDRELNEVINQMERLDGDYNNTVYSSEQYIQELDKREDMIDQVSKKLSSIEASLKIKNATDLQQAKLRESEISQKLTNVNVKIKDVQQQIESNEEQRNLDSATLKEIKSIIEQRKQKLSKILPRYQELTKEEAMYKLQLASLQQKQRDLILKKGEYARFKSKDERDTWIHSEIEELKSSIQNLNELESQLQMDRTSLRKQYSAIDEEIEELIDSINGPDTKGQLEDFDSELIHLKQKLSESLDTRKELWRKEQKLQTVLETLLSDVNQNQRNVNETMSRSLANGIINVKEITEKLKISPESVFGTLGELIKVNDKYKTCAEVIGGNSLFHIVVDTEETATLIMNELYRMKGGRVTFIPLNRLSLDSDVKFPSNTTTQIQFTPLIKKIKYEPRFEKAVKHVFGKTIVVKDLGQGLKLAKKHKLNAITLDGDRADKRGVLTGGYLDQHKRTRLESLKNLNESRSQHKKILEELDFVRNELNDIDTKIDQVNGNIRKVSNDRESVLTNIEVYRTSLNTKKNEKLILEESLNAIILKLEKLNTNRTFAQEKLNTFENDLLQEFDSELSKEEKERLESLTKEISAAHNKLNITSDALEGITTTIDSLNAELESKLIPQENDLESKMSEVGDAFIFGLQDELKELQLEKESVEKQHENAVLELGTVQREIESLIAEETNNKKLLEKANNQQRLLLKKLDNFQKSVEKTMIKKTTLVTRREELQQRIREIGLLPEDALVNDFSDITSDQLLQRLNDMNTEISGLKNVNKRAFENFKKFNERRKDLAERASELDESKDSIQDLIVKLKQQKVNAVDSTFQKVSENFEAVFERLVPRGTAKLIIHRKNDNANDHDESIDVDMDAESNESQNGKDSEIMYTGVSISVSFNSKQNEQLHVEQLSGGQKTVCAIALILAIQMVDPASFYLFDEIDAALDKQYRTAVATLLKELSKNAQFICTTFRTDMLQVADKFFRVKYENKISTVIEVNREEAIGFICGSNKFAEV
# Columns and labels:
# [1] = target: T1, Smc3(K198C)-PK6 (S. cerevisiae); assay: cross-linking
# [2] = target: T2, Smc3(R1222C) (S. cerevisiae); assay: cross-linking
Binder,binding [1],binding [2]
"Smc1(K201C)-myc9 (protein, UniProt P32908 1-1225) MGRLVGLELSNFKSYRGVTKVGFGESNFTSIIGPNGSGKSNMMDAISFVLGVRSNHLRSNILKDLIYRGVLNDENSDDYDNEGAASSNPQSAYVKAFYQKGNKLVELMRIISRNGDTSYKIDGKTVSYKDYSIFLENENILIKAKNFLVFQGDVEQIAAQSPVELSRMFEEVSGSIQYKKEYEELKEKIEKLSKSATESICNRRRIHGELKTYKEGINKNEEYRKQLDKKNELQKFQALWQLYHLEQQKEELTDKLSALNSEISSLKGKINNEMKSLQRSKSSFVKESAVISKQKSKLDYIFKDKEKLVSDLRLIKVPQQAAGKRISHIEKRIESLQKDLQRQKTYVERFETQLKVVTRSKEAFEEEIKQSARNYDKFKLNENDLKTYNCLHEKYLTEGGSILEEKIAVLNNDKREIQEELERFNKRADISKRRITEELSITGEKLDTQLNDLRVSLNEKNALHTERLHELKKLQSDIESANNQEYDLNFKLRETLVKIDDLSANQRETMKERKLRENIAMLKRFFPGVKGLVHDLCHPKKEKYGLAVSTILGKNFDSVIVENLTVAQECIAFLKKQRAGTASFIPLDTIETELPTLSLPDSQDYILSINAIDYEPEYEKAMQYVCGDSIICNTLNIAKDLKWKKGIRGKLVTIEGALIHKAGLMTGGISGDANNRWDKEEYQSLMSLKDKLLIQIDELSNGQRSNSIRAREVENSVSLLNSDIANLRTQVTQQKRSLDENRLEIKYHNDLIEKEIQPKITELKKKLDDLENTKDNLVKEKEALQNNIFKEFTSKIGFTIKEYENHSGELMRQQSKELQQLQKQILTVENKLQFETDRLSTTQRRYEKAQKDLENAQVEMKSLEEQEYAIEMKIGSIESKLEEHKNHLDELQKKFVTKQSELNSSEDILEDMNSNLQVLKRERDGIKEDIEKFDLERVTALKNCKISNINIPISSETTIDDLPISSTDNEAITISNSIDINYKGLPKKYKENNTDSARKELEQKIHEVEEILNELQPNARALERYDEAEGRFEVINNETEQLKAEEKKILNQFLKIKKKRKELFEKTFDYVSDHLDAIYRELTKNPNSNVELAGGNASLTIEDEDEPFNAGIKYHATPPLKRFKDMEYLSGGEKTVAALALLFAINSYQPSPFFVLDEVDAALDITNVQRIAAYIRRHRNPDLQFIVISLKNTMFEKSDALVGVYRQQQENSSKIITLDLSNYAE",binds,
"Smc1(D1164E, N1192C)-HA (protein, UniProt P32908 1-1225) MGRLVGLELSNFKSYRGVTKVGFGESNFTSIIGPNGSGKSNMMDAISFVLGVRSNHLRSNILKDLIYRGVLNDENSDDYDNEGAASSNPQSAYVKAFYQKGNKLVELMRIISRNGDTSYKIDGKTVSYKDYSIFLENENILIKAKNFLVFQGDVEQIAAQSPVELSRMFEEVSGSIQYKKEYEELKEKIEKLSKSATESIKNRRRIHGELKTYKEGINKNEEYRKQLDKKNELQKFQALWQLYHLEQQKEELTDKLSALNSEISSLKGKINNEMKSLQRSKSSFVKESAVISKQKSKLDYIFKDKEKLVSDLRLIKVPQQAAGKRISHIEKRIESLQKDLQRQKTYVERFETQLKVVTRSKEAFEEEIKQSARNYDKFKLNENDLKTYNCLHEKYLTEGGSILEEKIAVLNNDKREIQEELERFNKRADISKRRITEELSITGEKLDTQLNDLRVSLNEKNALHTERLHELKKLQSDIESANNQEYDLNFKLRETLVKIDDLSANQRETMKERKLRENIAMLKRFFPGVKGLVHDLCHPKKEKYGLAVSTILGKNFDSVIVENLTVAQECIAFLKKQRAGTASFIPLDTIETELPTLSLPDSQDYILSINAIDYEPEYEKAMQYVCGDSIICNTLNIAKDLKWKKGIRGKLVTIEGALIHKAGLMTGGISGDANNRWDKEEYQSLMSLKDKLLIQIDELSNGQRSNSIRAREVENSVSLLNSDIANLRTQVTQQKRSLDENRLEIKYHNDLIEKEIQPKITELKKKLDDLENTKDNLVKEKEALQNNIFKEFTSKIGFTIKEYENHSGELMRQQSKELQQLQKQILTVENKLQFETDRLSTTQRRYEKAQKDLENAQVEMKSLEEQEYAIEMKIGSIESKLEEHKNHLDELQKKFVTKQSELNSSEDILEDMNSNLQVLKRERDGIKEDIEKFDLERVTALKNCKISNINIPISSETTIDDLPISSTDNEAITISNSIDINYKGLPKKYKENNTDSARKELEQKIHEVEEILNELQPNARALERYDEAEGRFEVINNETEQLKAEEKKILNQFLKIKKKRKELFEKTFDYVSDHLDAIYRELTKNPNSNVELAGGNASLTIEDEDEPFNAGIKYHATPPLKRFKDMEYLSGGEKTVAALALLFAINSYQPSPFFVLDEVDAALEITNVQRIAAYIRRHRNPDLQFIVISLKCTMFEKSDALVGVYRQQQENSSKIITLDLSNYAE",,binds
